From PMC3900716
Results are given in words; binding and its absence hold for the method and conditions named. In cells and extracts the contact can be indirect. Binding can be weak; no strength is given. Tags and fused reporters may be left off the sequences shown.

Biological target: T1, GST-tagged human Cbl-c (human) (UniProt Q9ULV8)
T1 sequence: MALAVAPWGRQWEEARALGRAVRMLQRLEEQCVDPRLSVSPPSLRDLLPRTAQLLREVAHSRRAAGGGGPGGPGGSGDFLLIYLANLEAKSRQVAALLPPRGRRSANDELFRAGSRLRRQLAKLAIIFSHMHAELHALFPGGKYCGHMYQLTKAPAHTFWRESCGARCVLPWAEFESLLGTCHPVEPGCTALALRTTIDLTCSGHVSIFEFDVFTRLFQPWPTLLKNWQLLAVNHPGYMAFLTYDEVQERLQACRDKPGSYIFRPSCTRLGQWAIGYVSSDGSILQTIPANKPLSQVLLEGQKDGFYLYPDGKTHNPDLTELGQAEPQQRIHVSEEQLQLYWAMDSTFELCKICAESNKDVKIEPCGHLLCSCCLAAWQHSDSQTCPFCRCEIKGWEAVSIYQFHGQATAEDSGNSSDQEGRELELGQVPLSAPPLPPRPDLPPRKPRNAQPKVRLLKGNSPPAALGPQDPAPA
Assay: pull-down; GST pull-down on Glutathione Sepharose 4B from 300 µg whole cell lysate of co-transfected HEK293T cells, overnight at 4°C, five washes in lysis buffer (10 mM Tris-HCl pH 7.5, 150 mM NaCl, 5 mM EDTA, 1% Triton X-100), immunoblot; in Figure 2B cells with 500 µM Sorafenib or DMSO for 90 min before lysis

Row | binding | Substance
1 | binds | FLAG-Enigma ΔLIM2-3 (human) (domain or fragment)
2 | binds | FLAG-Enigma ΔLIM3 (human) (domain or fragment)
